Experimental findings from PMC12929097 are described below.

Sequences of proteins named here, by UniProt entry; tags and fusion partners are left off.
UniProt Q90WI0: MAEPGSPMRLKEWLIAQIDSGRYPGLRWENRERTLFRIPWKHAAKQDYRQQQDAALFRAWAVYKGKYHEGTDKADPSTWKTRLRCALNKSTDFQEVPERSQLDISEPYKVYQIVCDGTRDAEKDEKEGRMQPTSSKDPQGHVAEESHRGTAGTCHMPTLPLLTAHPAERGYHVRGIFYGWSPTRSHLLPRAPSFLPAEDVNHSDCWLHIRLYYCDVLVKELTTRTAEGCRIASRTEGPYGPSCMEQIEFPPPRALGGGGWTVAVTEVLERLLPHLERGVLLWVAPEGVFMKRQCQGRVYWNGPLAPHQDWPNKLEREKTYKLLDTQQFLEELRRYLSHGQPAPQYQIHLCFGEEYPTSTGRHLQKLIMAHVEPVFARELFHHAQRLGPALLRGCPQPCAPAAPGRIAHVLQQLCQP

Results are given in words; binding and its absence hold for the method and conditions named. In cells and extracts the contact can be indirect. Some binding calls cover weakened binding; strength is not graded here.

In the assay the target is T1, chicken stimulator of interferon genes (chSTING) (chicken) (UniProt E1C7U0).
T1 sequence: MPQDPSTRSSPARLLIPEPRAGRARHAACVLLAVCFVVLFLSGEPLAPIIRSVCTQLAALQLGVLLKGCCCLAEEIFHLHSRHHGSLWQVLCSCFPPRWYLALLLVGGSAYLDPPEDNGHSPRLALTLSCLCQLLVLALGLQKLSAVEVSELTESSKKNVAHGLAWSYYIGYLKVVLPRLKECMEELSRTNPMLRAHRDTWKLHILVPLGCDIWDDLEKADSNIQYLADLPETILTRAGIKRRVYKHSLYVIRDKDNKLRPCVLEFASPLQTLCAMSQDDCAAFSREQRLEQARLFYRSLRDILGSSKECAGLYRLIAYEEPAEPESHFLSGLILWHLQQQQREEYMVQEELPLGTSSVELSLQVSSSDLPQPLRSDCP
Nature of the assay: co-IP; 293T cells co-transfected for 48 h; cleared lysates from a 6-well plate incubated with 1 μg of specific antibody and Protein A/G PLUS-Agarose; eluate and input analysed by Western blotting.

For “chicken interferon regulatory factor 10 (chIRF10) (from UniProt Q90WI0 1-416)”, the binding entry is on record as “binds”.
